In the experiment the target is GFP-Ypt7p (Rab7-like Ypt7p tagged with the green fluorescent protein, from the GFP-MYC-YPT7 strain) (S. cerevisiae) (UniProt P32939). Kind of experiment: affinity purification with mass spectrometry; proteins of purified lipid droplets (15 ug) extracted in lysis buffer (20 mM HEPES, 150 mM NaCl, 10% glycerol, 1% NP 40), incubated 2 h at 4°C with GFP-trap magnetic particles (GFPm); eluted with glycine pH 2.8, then LDS; bands absent from the controls cut out of the SDS gel and analysed by ….

Sequences of proteins named here, by UniProt entry; tags and fusion partners are left off.
UniProt P32939: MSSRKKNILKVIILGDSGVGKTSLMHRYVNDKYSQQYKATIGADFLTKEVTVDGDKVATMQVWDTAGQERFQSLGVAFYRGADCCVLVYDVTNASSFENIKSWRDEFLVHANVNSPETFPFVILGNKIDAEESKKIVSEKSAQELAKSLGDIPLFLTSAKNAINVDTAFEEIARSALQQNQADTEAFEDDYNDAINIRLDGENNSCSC

Results are given in words; binding and its absence hold for the method and conditions named. Binding seen in cells or lysates may run through a third protein. Here binding means that the protein was enriched with, or labelled near, the bait; the list need not be complete.

B1: Gdi1p (protein, UniProt P39958 1-451)
chain: MDQETIDTDYDVIVLGTGITECILSGLLSVDGKKVLHIDKQDHYGGEAASVTLSQLYEKFKQNPISKEERESKFGKDRDWNVDLIPKFLMANGELTNILIHTDVTRYVDFKQVSGSYVFKQGKIYKVPANEIEAISSPLMGIFEKRRMKKFLEWISSYKEDDLSTHQGLDLDKNTMDEVYYKFGLGNSTKEFIGHAMALWTNDDYLQQPARPSFERILLYCQSVARYGKSPYLYPMYGLGELPQGFARLSAIYGGTYMLDTPIDEVLYKKDTGKFEGVKTKLGTFKAPLVIADPTYFPEKCKSTGQRVIRAICILNHPVPNTSNADSLQIIIPQSQLGRKSDIYVAIVSDAHNVCSKGHYLAIISTIIETDKPHIELEPAFKLLGPIEEKFMGIAELFEPREDGSKDNIYLSRSYDASSHFESMTDDVKDIYFRVTGHPLVLKQRQEQEKQ
On to B1, for which the binding entry was “binds”.

These data come from article PMC4571102.
